The list shows a part of the results.
What follows are sequences tested against T1, OsSMF1 (Oryza sativa, UniProt Q6ZLB0 1-436) (assay: protein-binding microarray (RPBM); PBS, 2% BSA, 51.3 ng/ul salmon testes DNA, 50 uM zinc acetate, 200 nM TF, 25 C, 1 h; high values mean tight binding). Conditions: protein: recombinant; tags: N-terminal polyhistidine and DsRed monomer fusion (pET32a); chain copies: 2; label: CyDye5-dUTP incorporated in the synthesized complementary strand; 3' TTTTT single-stranded linker to array surface; dsDNA, one strand shown.
T1 sequence: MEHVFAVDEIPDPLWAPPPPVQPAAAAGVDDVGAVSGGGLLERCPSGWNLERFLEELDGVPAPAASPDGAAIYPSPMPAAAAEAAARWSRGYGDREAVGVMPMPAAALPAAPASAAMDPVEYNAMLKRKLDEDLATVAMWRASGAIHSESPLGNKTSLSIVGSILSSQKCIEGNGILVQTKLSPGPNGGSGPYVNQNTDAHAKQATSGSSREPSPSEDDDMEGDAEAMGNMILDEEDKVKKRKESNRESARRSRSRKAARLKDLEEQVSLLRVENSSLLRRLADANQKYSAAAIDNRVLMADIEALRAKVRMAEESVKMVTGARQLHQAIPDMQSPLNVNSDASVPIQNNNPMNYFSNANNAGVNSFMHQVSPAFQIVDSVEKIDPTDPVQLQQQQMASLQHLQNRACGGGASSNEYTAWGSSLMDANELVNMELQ
Procedure, shortened: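 Per-feature fluorescence intensity (arbitrary units), read on an Axon 4000B scanner, is the binding signal. Transcription factors carrying an N-terminal polyhistidine tag and DsRed fusion were expressed in E. coli BL21-CodonPlus and purified on Ni–NTA. A custom Agilent array, made double-stranded by primer extension with Cy5-dUTP and blocked with 2% BSA, was incubated with 200 nM protein in PBS, 2% BSA, salmon testes DNA and 50 µM zinc acetate at 25 °C for 1 h and then washed.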

Sequence	binding signal
AAGCTAACTTGTGTTGCCTACACAAGTACTAAAATGGCATCGGAGTCACCTAGTGCAG	63600 fluorescence intensity (a.u.)
TTGCTTATCCACACACGTAAGCATTGTTTCTTCAGTCTACCGGAGTCACCTAGTGCAG	18200 fluorescence intensity (a.u.)
TTACATACTGTATCATACTGACGTCAACGTATAATATTCCCGGAGTCACCTAGTGCAG	8340 fluorescence intensity (a.u.)
GCCAATCTCCACCACCACATCATCTTCTTCCTCCTCCACCCGGAGTCACCTAGTGCAG	6770 fluorescence intensity (a.u.)
TTAGTGATATGCGAAACATAACTCTATATTGGCCTTCTCCCGGAGTCACCTAGTGCAG	35900 fluorescence intensity (a.u.)
ACAAACACTAGTACCATTTTGTAAATTATGTATGACGCGGCGGAGTCACCTAGTGCAG	7760 fluorescence intensity (a.u.)
GCCAGCCGCCGCCGTCGTGTCGCCCGTCGCCGGCCGCCGACGGAGTCACCTAGTGCAG	3520 fluorescence intensity (a.u.)
TGGCACATGACACATAACCCCGAGTATTATGATCTTAAAGCGGAGTCACCTAGTGCAG	3380 fluorescence intensity (a.u.)
GGGGTGTTTGGTTGAGGGGTGGGTGGGATGGATTGGTCCTCGGAGTCACCTAGTGCAG	5240 fluorescence intensity (a.u.)
AAGTTAATATTTCAGTTACATTGCATCATAATGTTGTTGCCGGAGTCACCTAGTGCAG	3650 fluorescence intensity (a.u.)
ACCGACTAGCAGGCAGCACGTCATCGCTGGCCTTCATCACCGGAGTCACCTAGTGCAG	10900 fluorescence intensity (a.u.)
GCCGCCGCTCCCTCCCAATGACCCGCCGGATCTCCTAGTGCGGAGTCACCTAGTGCAG	3160 fluorescence intensity (a.u.)
GGCTTGTTTGGTTTGCTATCATGCCAAAATATTGGCAATACGGAGTCACCTAGTGCAG	30400 fluorescence intensity (a.u.)
CATCAGGCAGTGCATCATCATTCATCACCTTCTCCTCCTTCGGAGTCACCTAGTGCAG	3990 fluorescence intensity (a.u.)
AATGGCTGAAAAGCTGTACAATAGGGTGTCAGAAAAGGAACGGAGTCACCTAGTGCAG	3720 fluorescence intensity (a.u.)
CAATAACCACATCGACAAATATTGCGCACACGCACGCACGCGGAGTCACCTAGTGCAG	4910 fluorescence intensity (a.u.)
AATTTAGGAGTTAGAACTCTACCAAATAGACCTTACACATCGGAGTCACCTAGTGCAG	5170 fluorescence intensity (a.u.)
AGAACATGGCCATGCCACATATTGCCATCGCTCCATCGCTCGGAGTCACCTAGTGCAG	3310 fluorescence intensity (a.u.)
CTGCAAAGTGCAATTGAAGGGGCTGAGAATGCATGTTACGCGGAGTCACCTAGTGCAG	3310 fluorescence intensity (a.u.)
AGTCATCCAGTCACCGCCTAGGCCCAGTAACCAATGGTAGCGGAGTCACCTAGTGCAG	3330 fluorescence intensity (a.u.)
TTACCTCCACTATTATCACTAGCTTGTTCCTATTCTCTGGCGGAGTCACCTAGTGCAG	3300 fluorescence intensity (a.u.)

A different layout for part of the listing above:
Sequence | binding signal
AAGCTAACTTGTGTTGCCTACACAAGTACTAAAATGGCATCGGAGTCACCTAGTGCAG | 63600 fluorescence intensity (a.u.)
TTGCTTATCCACACACGTAAGCATTGTTTCTTCAGTCTACCGGAGTCACCTAGTGCAG | 18200 fluorescence intensity (a.u.)
TTACATACTGTATCATACTGACGTCAACGTATAATATTCCCGGAGTCACCTAGTGCAG | 8340 fluorescence intensity (a.u.)
GCCAATCTCCACCACCACATCATCTTCTTCCTCCTCCACCCGGAGTCACCTAGTGCAG | 6770 fluorescence intensity (a.u.)
TTAGTGATATGCGAAACATAACTCTATATTGGCCTTCTCCCGGAGTCACCTAGTGCAG | 35900 fluorescence intensity (a.u.)
ACAAACACTAGTACCATTTTGTAAATTATGTATGACGCGGCGGAGTCACCTAGTGCAG | 7760 fluorescence intensity (a.u.)
GCCAGCCGCCGCCGTCGTGTCGCCCGTCGCCGGCCGCCGACGGAGTCACCTAGTGCAG | 3520 fluorescence intensity (a.u.)

(cont.)

Sequence	binding signal
TACCTGATCAACTTTGACTAATTTTATCCATGTCATTCAGCGGAGTCACCTAGTGCAG	4780 fluorescence intensity (a.u.)
GTGAAATCAAGAACGTCACTCCCTATCGCTTTCTCTTCTCCGGAGTCACCTAGTGCAG	3970 fluorescence intensity (a.u.)
TAAATCCAGACTCCGGACGGCGCAGTCGTCGTCATTCTCCCGGAGTCACCTAGTGCAG	4210 fluorescence intensity (a.u.)
ACTCTCACCTCCCCTCCGGCCTCCGCTCCCTTCCGCACCGCGGAGTCACCTAGTGCAG	19600 fluorescence intensity (a.u.)
ACTCGAGTACACGTATACATTGTTTGTTCCGTTTCGTGATCGGAGTCACCTAGTGCAG	8980 fluorescence intensity (a.u.)
CTCGCAACCTGGAGTGACTGTGTGAATTTCCATGCGCATGCGGAGTCACCTAGTGCAG	4820 fluorescence intensity (a.u.)
TGCCGCCTCCACGTCCTCATTGCTGTCTCCACTCTACTGTCGGAGTCACCTAGTGCAG	19200 fluorescence intensity (a.u.)
GCAGAGCTCGACCTCGTGTGTTGTCTCCCATTGCTTGGTTCGGAGTCACCTAGTGCAG	3670 fluorescence intensity (a.u.)
CGTGCTTGTCATGCACGACGTAGTACATGTACATGCCATGCGGAGTCACCTAGTGCAG	4250 fluorescence intensity (a.u.)
ATTAATTAGTGACAGGGAGTAGCAGGGGAAAACCAACCATCGGAGTCACCTAGTGCAG	3320 fluorescence intensity (a.u.)
GCATAGTGGAAGATCAGTTCGATCAAGATTCAGAGCTTCACGGAGTCACCTAGTGCAG	3790 fluorescence intensity (a.u.)
CTATAATTTCTGGTTACGGTGGTGACAAGTCATGTGGGCTCGGAGTCACCTAGTGCAG	4260 fluorescence intensity (a.u.)
ACAAGTGGACTCAATGCGCCACGTCGGATGAAATTGGGAGCGGAGTCACCTAGTGCAG	9390 fluorescence intensity (a.u.)
ACATGTACAGCTCAACAGGAATGTCACGTACTCACTCAGCCGGAGTCACCTAGTGCAG	3700 fluorescence intensity (a.u.)
CATAAGCGCCACGTTAACTCCACGTGGACCGAAGACTGAGCGGAGTCACCTAGTGCAG	14400 fluorescence intensity (a.u.)
CATACCGTGTGCGTGGCTGAGTCAATAGCAATCAAGACGGCGGAGTCACCTAGTGCAG	4700 fluorescence intensity (a.u.)
AGATAGTGACACCGTGTGACTAAGTAAAGTGACAGACATGCGGAGTCACCTAGTGCAG	4070 fluorescence intensity (a.u.)
CCCATCACCAGCAAAGCTTAGCTGTTGGTTACCCACCTTCCGGAGTCACCTAGTGCAG	3390 fluorescence intensity (a.u.)
AGTTGATCTGGTGCAGATCTTGTGTCACCATATTACACCACGGAGTCACCTAGTGCAG	3550 fluorescence intensity (a.u.)
GCGCGCACAAACAAATGTATCACCAGTAGTAGTACAACCACGGAGTCACCTAGTGCAG	3980 fluorescence intensity (a.u.)
TATGGAGTGAAATGTCAGACTCCAAATGACTTATATGATGCGGAGTCACCTAGTGCAG	64100 fluorescence intensity (a.u.)

Source: PMC7819943, “Rice protein-binding microarrays: a tool to detect cis-acting elements near promoter regions in rice”
